Drawing on PubChem BioAssay AID493014 (National Center for Advancing Translational Sciences (NCATS), 2011), this text covers AC50 for 42 molecules.

SMILES strings stand for the structures. This is one part of the list. Further columns of the screen follow, without active or inactive calls. The list favours compounds with an active or inconclusive main result. Potencies come from curve fits of mixed quality, noted in brackets.

What is called AC50 is the concentration giving half of the maximal activity seen.

This assay can be described thus: qHTS Assay to Find Inhibitors of Chronic Active B-Cell Receptor Signaling. Conditions: ABC-DLBCL IkBa-CBG/CBR reporter, luminescence ratio (green luciferase fused to IkBa over red control in TMD8 lymphoma cells), 4 h. In short, it runs like this:
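Doxycycline induced both beetle luciferases in TMD8 lymphoma cells; IKK-driven degradation limits the IkappaBalpha-fused green signal, while red luminescence normalises for cell number and nonspecific effects. Compounds tested up to 46 uM, 4 hrs.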
(In qHTS, concentration-response curves come from the screen itself.)

[1] abbreviates: measured here: CBR red luminescence, cell number.
The mark [2] stands for this setting: measured here: IkBa-CBG green luminescence.

With `CCn1c(C)nc2cc(C(N)=O)ccc21`, under setting [1], the AC50 is 1.78 µM [rising, partial curve, poor fit].

`COc1cc(/C=N/NC(N)=S)ccc1OCc1ccc(C)cc1`: under setting [1], the concentration at half-maximal activity (AC50) is 14.6 µM [falling, single point]. Still for that read-out and setting: for `O=C(Nc1ccc(S(=O)(=O)Nc2cnc3ccccc3n2)cc1)c1ccccc1Br` the value was 35.5 µM [falling, single point]; for `COc1ccc(C(C(=O)NC2CCCC2)N(C(=O)c2snc(-c3ccc(F)cc3)c2N)c2ccccc2)cc1` (centres undefined), 7.94 µM [rising, partial curve, poor fit]; for `CC(=O)Nc1cccc(NC(=O)Nc2cccc3ccccc23)c1`, 0.355 µM [falling, full curve]. The same measure, in the same setting: for `CCCCNC(=O)OCC(CC)NC(=O)OCC(C)C` (centres undefined) the value was 28.2 µM [falling, partial curve, poor fit]; for `Cc1ccccc1-c1nc(CN(C)C(C)c2ccon2)c(C)o1` (centres undefined), 3.98 µM [rising, single point]. Same read-out and setting: then `CCOC(=O)N1CCC(N2CCCC(C(=O)c3ccc4cc(OC)ccc4c3)C2)CC1` (centres undefined), with 11.2 µM [falling, single point]. As to `COc1ccc(CNC(=O)CSCc2ccccc2Cl)cc1`, the AC50 is, setting by setting: under setting [1], 23.1 µM [rising, partial curve]; under setting [2], 29.1 µM [falling, single point]. Regarding `O=C(CSc1ccccn1)Nc1nonc1[N+](=O)[O-]`, the AC50 under setting [1] was 7.94 µM [falling, partial curve].

With `Cc1cc(C)cc(NC(=O)CN(C)S(=O)(=O)c2cnc[nH]2)c1`, the half-maximal activity concentration (AC50) under setting [1] is 32.6 µM [rising, single point]. Regarding `O=C(NC(Cc1ccccc1)c1ccc2c(c1)OCCCO2)c1ccccc1` (centres undefined), the AC50 under setting [1] was 16.4 µM [rising, single point].

Consider `CC12CC3CC(C)(C1)CC(C(=O)NC1=NCCS1)(C3)C2`, for which, under setting [1], the AC50 was 0.731 µM [rising, full curve, poor fit]. For `O=C(Cc1c[nH]c2ccccc12)Nc1nnc(C2CC2)s1`, the AC50 under setting [1] was 12.6 µM [falling, single point].

Consider `Cc1cc(O)c(-c2n[nH]c3c2C(c2cccc(O)c2)N(Cc2cccnc2)C3=O)cc1Cl` (centres undefined), for which the AC50 under setting [1] is 0.326 µM [falling, full curve, poor fit]. For `COc1cccc(/C=N/NC(=O)Cn2cnc3c2c(=O)n(C)c(=O)n3C)c1OC`, the half-maximal activity concentration (AC50) under setting [1] was 0.708 µM [rising, full curve, poor fit].

For `Cc1cc(C)c2c(=O)n(CC(=O)Nc3cccc(F)c3)sc2n1`, the AC50 under setting [1] was 35.5 µM [rising, single point]. Same read-out and setting: then `COc1ccc(NC(=O)c2[nH]c(C)c(C(C)=O)c2C)cc1`, with 10 µM [rising, partial curve]; and `COc1ccc(N2CCN(C(=O)CN3C(=O)NC(C)(c4ccc5ccccc5c4)C3=O)CC2)cc1` (centres undefined), with 25.9 µM [falling, single point].

For the molecule `Cc1cc(-c2ccccc2)nc(N/N=C/c2ccco2)n1`, the AC50 under setting [1] is 12.6 µM [falling, partial curve, poor fit]. Same read-out and setting: for `CCOC(=O)c1sc(-c2ccc(F)cc2)cc1N` the value was 0.326 µM [rising, partial curve, poor fit]. For `Cc1oc(-c2ccccc2)cc1C(=O)Nc1cccc(/C=C/C(=O)O)c1`, the AC50 is 11.2 µM [falling, single point] under setting [1] and 0.112 µM [rising, full curve, poor fit] under setting [2].

`CCOC(=O)c1ccc(NC(=O)c2cc(S(=O)(=O)N3CCOCC3)ccc2O)cc1`: the AC50 under setting [1] was 4.61 µM [falling, full curve]. For the molecule `CCOc1ncccc1C(=O)OCC(=O)Nc1ccc(-c2nc3ccc(C)cc3s2)cc1`, the AC50 under setting [1] was 0.731 µM [rising, partial curve, poor fit]. Same read-out and setting: then `COc1ccc(-n2c(-c3cc(-c4ccccc4)sc3N)n[nH]c2=S)cc1`, with 15.8 µM [falling, single point]; and `Nc1nccnc1C(=O)N/N=C/c1ccco1`, with 22.4 µM [falling, single point]; and `Cc1ccc(OCc2ccc(C(=O)O)o2)cc1C`, with 5.01 µM [falling, partial curve]. Still for that read-out and setting: then `Cc1cc(C(=O)OCC(=O)NC(=O)NC(C)(C)C)c(C)o1`, with 14.1 µM [falling, single point]; and `CCn1c(=O)cc(SCC(=O)NCCCN2CCN(c3ccccc3F)CC2)c2ccccc21`, with 22.4 µM [falling, partial curve]; and `Cc1ccc(N(CCO)C(=S)Nc2ccccc2)cc1`, with 35.5 µM [rising, single point]. With `O=C(Nc1cccs1)Nc1cccnc1Cl`, the AC50 under setting [1] was 1.26 µM [falling, full curve, poor fit]. On the same count and under the same terms, for `CCNc1nnc(CCn2nc(C)c(Br)c2C)s1` the value was 1.26 µM [rising, full curve, poor fit]. On the same count and under the same terms, for `O=C(c1ccccc1)c1ccccc1NC(=O)C1CCCN1Cc1ccccc1` (centres undefined) the value was 2 µM [rising, full curve]; for `CN(C)C(=O)c1ccc2c3c(cccc13)CC2`, 35.5 µM [rising, single point]; for `COCCCOc1ccnc(CS(=O)c2nc3ccccc3[nH]2)c1C` (centres undefined), 35.5 µM [falling, single point]. Still for that read-out and setting: then `Nn1c(SC/C=C/c2ccccc2)nnc1-c1ccccn1`, with 3.98 µM [rising, full curve, poor fit]. For `NC(=O)c1cc[n+](CC(=O)NC(=O)Nc2ccccc2)cc1`, under setting [1], the AC50 was 0.731 µM [rising, partial curve, poor fit]. On the same count and under the same terms, then `CCN(CC(=O)NCCC1=CCCCC1)S(=O)(=O)c1ccccc1`, with 10 µM [rising, partial curve, poor fit]; and `COc1ccccc1OC(=O)c1cc(Cl)nc2ccccc12`, with 0.82 µM [rising, partial curve, poor fit]; and `Cc1cccc2nc3c(nc12)CCCC3`, with 0.398 µM [rising, partial curve, poor fit]. In the case of `CCc1ccc(C(=O)Nc2cc3c(cc2Cl)OCCCO3)cc1`, the half-maximal activity concentration (AC50) under setting [1] is 22.4 µM [rising, single point]. Still for that read-out and setting: for `CC(C)Sc1nc(C(F)(F)F)cc(=O)n1-c1ccccc1` the value was 15.8 µM [rising, partial curve, poor fit].
